Among the data in US20080219970A1 are binding values, retold here.

Amino acid sequences for entries named in this document (tags omitted). A change or cut given only in a name is not applied to a line headed by its entry. Residues count along the entry.
UniProt P00747, residues 97-810: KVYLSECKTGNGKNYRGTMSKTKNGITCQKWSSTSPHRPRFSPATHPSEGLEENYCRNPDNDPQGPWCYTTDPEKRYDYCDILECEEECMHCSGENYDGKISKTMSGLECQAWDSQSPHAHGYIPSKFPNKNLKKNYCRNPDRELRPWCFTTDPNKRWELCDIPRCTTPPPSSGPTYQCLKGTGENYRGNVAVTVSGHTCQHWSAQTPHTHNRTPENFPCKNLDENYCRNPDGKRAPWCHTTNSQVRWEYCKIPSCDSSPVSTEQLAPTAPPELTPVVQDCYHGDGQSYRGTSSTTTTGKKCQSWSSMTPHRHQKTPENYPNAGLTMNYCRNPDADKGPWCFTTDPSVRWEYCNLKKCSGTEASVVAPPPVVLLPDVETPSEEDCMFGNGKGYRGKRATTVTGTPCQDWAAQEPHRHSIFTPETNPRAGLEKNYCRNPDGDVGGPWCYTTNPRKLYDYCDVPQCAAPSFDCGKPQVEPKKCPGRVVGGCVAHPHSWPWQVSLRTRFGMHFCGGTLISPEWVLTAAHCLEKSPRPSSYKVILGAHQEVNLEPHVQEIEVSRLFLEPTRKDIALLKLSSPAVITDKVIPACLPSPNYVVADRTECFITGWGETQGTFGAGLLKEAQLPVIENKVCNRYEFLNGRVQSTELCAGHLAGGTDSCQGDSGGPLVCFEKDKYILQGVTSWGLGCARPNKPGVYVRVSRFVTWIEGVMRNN
UniProt Q9GP15: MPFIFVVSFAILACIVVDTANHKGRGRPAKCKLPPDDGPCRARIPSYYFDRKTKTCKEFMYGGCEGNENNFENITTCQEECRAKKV

These are yes or no findings as the source states them, for the method shown. Some results given as binding are weak or reduced against the parent protein; the word gives no strength.

The target of test [1] is plasmin (UniProt P00747). Kind of test: SPR (BIAcore 3000), Ir-CPI immobilized. Background: Surface plasmon resonance follows binding to a sensor surface in real time, without labels.
Test [2] addresses plasmin (UniProt P00747). Briefly: SPR (BIAcore 3000), Ir-CPI immobilized on CM5 chip (1500 RU), factor at 100 nM as analyte.

Turning to “Ir-CPI (Ixodes ricinus Contact Phase Inhibitor), recombinant, without its peptide signal (from UniProt Q9GP15 20-86)”, the binding result in test [1] and in test [2] was “binds” each time.
